According to PMC9505425, “Targeting of the Mitochondrial TET1 Protein by Pyrrolo[3,2-b]pyrrole Chelators” (International Journal of Molecular Sciences, 2022):
“Also recorded” adds a separate entry of the source. Some compounds share one wording; it may come from a single statement.

What was measured:
HF-P4 cells = assay: Intracellular localization by live-cell fluorescence microscopy; type: cell-based, human; details: HF-P4, 1 μM; for intracellular localization: 15 min
Protocol: Using real-time live-cell fluorescence microscopy on the model HF-P4 cell line, we investigated the intracellular localization of tested compounds at a concentration of 1 μM.
The intracellular localization of tested compounds 1–6 was investigated by fluorescence real-time live-cell microscopy using a Leica TCS SP8 WLL SMD-FLIM microscope at 37 °C and a 5% CO2 atmosphere. The model cell line, HF-P4 cells, was seeded at a density of 4.0 × 10^4 per well on 22 × 22 mm glasses (VWR, Stříbrná Skalice, Czech Republic) in Petri dishes for live-cell imaging in a complete cell culture medium (DMEM with 1% streptomycin and 10% FBS), and cells were maintained overnight (24 h) for adhesion. After 24 h, the cells were incubated for 15 min (37 °C, 5% CO2) in a complete culture medium containing compounds 1–6 at 1 μM concentrations, together with 50 nM of MitoTracker® Red FM (MTR; Thermo Fisher, Prague, Czech Republic) and 300 nM of LysoTracker® Green FM (LTG; Thermo Fisher, Prague, Czech Republic). […] Cells were then rinsed with PBS twice and left in a fresh medium without phenol red. We used a water objective, HC PL APO CS2 63× (NA 1.2), and laser with an excitation wavelength of 405 nm (10% power) with a fluorescence emission range 415–480 nm for visualization of cells. For MTR, we used a laser with an excitation wavelength of 579 nm (power 8%), and for LTG, we used a laser with an excitation wavelength of 504 nm (power 10%). Colocalization of the tested hydrazone derivates with mitochondria or lysosomes was assessed by correlation statistical analysis of the intensity values of red (MTR) or green (LTG) and blue (hydrazone derivate) pixels in dual-channel images. Pearson’s correlation coefficient was calculated using the ImageJ software.

[1] = Complexation with Fe(II) ions by UV–VIS titration (conditional binding constants); type: physicochemical; details: for Log(K): water/DMSO 99:1; for interaction with Fe(II) ions: absorption spectroscopy
Protocol: The interaction of prepared compounds 1–6 with Fe(II) ions was determined by absorption spectroscopy, and the highest affinity (represented by the binding constant, Table 1) was obtained for compound 1 (Figure 3 and Table 1). […] On the contrary, we expected that an incorporation of another iron-binding group (i.e., hydroxyphenyl) into the structural motif of compound 1 would support its chelation ability. Loss of chelation ability could be explained by the protonation of the iron-binding group. […] On the contrary, they can display a negative charge in the basic pH.
The complexation of compounds 1–6 with Fe(II) ions was studied by UV–VIS spectroscopy in aqueous medium (water/DMSO, 99:1, v/v). Compounds 1–6 were dissolved in DMSO (Penta, Katovice, Czech Republic) that, prior to the experiment, had been diluted with water to a concentration of 10 μM. The concentrations of Fe(II) ions varied from 0 to 0.5 mM. All titrations were performed in the same environment, and the ratio of DMSO to water was held constant. All absorption spectra of the chelators were recorded by a Cintra 404 GBC spectrometer. Conditional constants (Ks) were calculated from the absorbance changes, ΔA, of compounds 1–6 at the spectral maxima of their complexes with Fe(II), using nonlinear regression analysis with the Letagrop Spefo 2.0 (Vanura, Prague, Czech Republic) software. The computational model for conditional constants (Ka) is described and discussed in detail elsewhere, with the same method used to study the interactions of the organic hosts with metal ions in aqueous medium. Solutions were mixed in the cuvette during the whole titration and after every Fe(II) chelate addition.

| Structure (SMILES) | intracellular localization (HF-P4 cells) | Log(K) ([1]; Fe(II) ions:compound 1:1) | Log(K) ([1]; Fe(II) ions:compound 1:2) | Log(K) ([1]; Fe(II) ions:compound 2:1) | Pearson’s correlation coefficient (mitochondrial colocalization) (HF-P4 cells; MitoTracker Red) | interaction with Fe(II) ions [1] |
| --- | --- | --- | --- | --- | --- | --- |
| Cc1ccc(-n2c(-c3ccc(C(=O)N/N=C/c4ccc(O)cc4O)cc3)cc3c2cc(-c2ccc(C(=O)N/N=C/c4ccc(O)cc4O)cc2)n3-c2ccc(C)cc2)cc1 [Compound 4] | lysosomes | 6.9/M | 17.4/M^2 | 10.9/M^2 | – | – |
| Cc1ccc(-n2c(-c3ccc(C(=O)NN)cc3)cc3c2cc(-c2ccc(C(=O)NN)cc2)n3-c2ccc(C)cc2)cc1 [Compound 1] | exclusive mitochondrial localization; also recorded: selectivity for mitochondria | 8.4/M | 17.2/M^2 | – | 0.92 | – |
| COc1cccc(/C=N/NC(=O)c2ccc(-c3cc4c(cc(-c5ccc(C(=O)N/N=C/c6cccc(OC)c6O)cc5)n4-c4ccc(C)cc4)n3-c3ccc(C)cc3)cc2)c1O [Compound 5] | both mitochondria and lysosomes | – | – | – | – | no significant interaction |
| Cc1ccc(-n2c(-c3ccc(C(=O)N/N=C/c4ccccc4O)cc3)cc3c2cc(-c2ccc(C(=O)N/N=C/c4ccccc4O)cc2)n3-c2ccc(C)cc2)cc1 [Compound 6] | lysosomes | – | – | – | – | no significant interaction |
| Cc1ccc(-n2c(-c3ccc(C(=O)N/N=C/c4cc(F)ccc4O)cc3)cc3c2cc(-c2ccc(C(=O)N/N=C/c4cc(F)ccc4O)cc2)n3-c2ccc(C)cc2)cc1 [Compound 3] | lysosomes | – | – | – | – | no significant interaction |
| CCN(CC)c1ccc(/C=N/NC(=O)c2ccc(-c3cc4c(cc(-c5ccc(C(=O)N/N=C/c6ccc(N(CC)CC)cc6O)cc5)n4-c4ccc(C)cc4)n3-c3ccc(C)cc3)cc2)c(O)c1 [Compound 2] | both mitochondria and lysosomes | 7.2/M | 17.2/M^2 | – | – | – |
